PMC6834594, “Structure and regulation of ZCCHC4 in m^6A-methylation of 28S rRNA” (Nature Communications, 2019)
Substitutions are numbered along the chain they refer to. The exact form of at least one protein or probe is not confirmed. At least one verdict rests on a figure or table, not on a statement of the authors. For part of these data: Tags and fusion partners may be left off the protein sequences shown.

How the values were obtained:
Experiment in all cases: EMSA
ZCCHC4 H343A (human) = molecular target: T1, ZCCHC4 H343A (human) (UniProt Q9H5U6); conditions: EMSA: 20 mM Tris-HCl pH 7.5, 100 mM NaCl, 5% glycerol, 1 mM DTT, 4 C, 1 h; 0.3 uM RNA with 0-1.2 uM protein unless noted; 6% TBE native gel; recombinant …; residues 24-513; protein details: His6-SUMO removed by ULP1; label: none (SYBR Gold stain)
T1 sequence (looked up): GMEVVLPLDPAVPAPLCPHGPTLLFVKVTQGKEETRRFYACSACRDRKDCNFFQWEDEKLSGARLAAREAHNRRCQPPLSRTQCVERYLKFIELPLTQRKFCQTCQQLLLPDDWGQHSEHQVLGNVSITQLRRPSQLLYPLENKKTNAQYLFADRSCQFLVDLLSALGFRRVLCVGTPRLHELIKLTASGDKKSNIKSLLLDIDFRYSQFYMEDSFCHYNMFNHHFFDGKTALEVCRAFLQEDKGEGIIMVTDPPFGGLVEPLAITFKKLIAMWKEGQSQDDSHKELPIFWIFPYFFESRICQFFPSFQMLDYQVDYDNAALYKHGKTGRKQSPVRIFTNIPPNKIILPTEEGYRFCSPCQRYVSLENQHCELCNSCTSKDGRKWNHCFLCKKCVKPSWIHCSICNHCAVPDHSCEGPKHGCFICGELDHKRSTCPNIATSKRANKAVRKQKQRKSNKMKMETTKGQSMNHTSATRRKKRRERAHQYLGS

ZCCHC4 N342A (human) = molecular target: T2, ZCCHC4 N342A (human) (UniProt Q9H5U6); conditions: EMSA: 20 mM Tris-HCl pH 7.5, 100 mM NaCl, 5% glycerol, 1 mM DTT, 4 C, 1 h; 0.3 uM RNA with 0-1.2 uM protein unless noted; 6% TBE native gel; recombinant …; residues 24-513; protein details: His6-SUMO removed by ULP1; label: none (SYBR Gold stain)
T2 sequence (looked up): T1 sequence (looked up) with N319A, A320H

ZCCHC4 K416A (human) = molecular target: T3, ZCCHC4 K416A (human) (UniProt Q9H5U6); conditions: 0.3 uM protein, 0.6 uM RNA; EMSA: 20 mM Tris-HCl pH 7.5, 100 mM NaCl, 5% glycerol, 1 mM DTT, 4 C, 1 h; 0.3 uM RNA with 0-1.2 uM protein unless noted; 6% TBE native gel; recombinant protein; residues 24-513; protein details: His6-SUMO removed by ULP1; label: none (SYBR Gold stain)
T3 sequence (looked up): T1 sequence (looked up) with A320H, K393A

ZCCHC4 L345A (human) = molecular target: T4, ZCCHC4 L345A (human) (UniProt Q9H5U6); conditions: EMSA: 20 mM Tris-HCl pH 7.5, 100 mM NaCl, 5% glycerol, 1 mM DTT, 4 C, 1 h; 0.3 uM RNA with 0-1.2 uM protein unless noted; 6% TBE native gel; recombinant …; residues 24-513; protein details: His6-SUMO removed by ULP1; label: none (SYBR Gold stain)
T4 sequence (looked up): T1 sequence (looked up) with A320H, L322A

ZCCHC4 R68A (human) = ZCCHC4 R68A (human) (UniProt Q9H5U6); conditions: 0.3 uM protein, 0.6 uM RNA; EMSA: 20 mM Tris-HCl pH 7.5, 100 mM NaCl, 5% glycerol, 1 mM DTT, 4 C, 1 h; 0.3 uM RNA with 0-1.2 uM protein unless noted; 6% TBE native gel; recombinant protein; residues 24-513; protein details: His6-SUMO removed by ULP1; label: none (SYBR Gold stain)
ZCCHC4 W408A (human) = molecular target: T5, ZCCHC4 W408A (human) (UniProt Q9H5U6); conditions: 0.3 uM protein, 0.6 uM RNA; EMSA: 20 mM Tris-HCl pH 7.5, 100 mM NaCl, 5% glycerol, 1 mM DTT, 4 C, 1 h; 0.3 uM RNA with 0-1.2 uM protein unless noted; 6% TBE native gel; recombinant protein; residues 24-513; protein details: His6-SUMO removed by ULP1; label: none (SYBR Gold stain)
T5 sequence (looked up): T1 sequence (looked up) with A320H, W385A

Measured: binding result

CGGUACACCUGUCAAACGGUAACGCAGGUG [30-mer 28S rRNA]
binds: all assays above
